Laboratory results from the supplement of paper PMC10849652.
The other results are listed elsewhere or left out.

The chains behind the UniProt entries cited, without tags or fusion partners. Where a name states a change or a piece, a line headed by the entry shows the natural chain unless it says otherwise.
UniProt Q86U70: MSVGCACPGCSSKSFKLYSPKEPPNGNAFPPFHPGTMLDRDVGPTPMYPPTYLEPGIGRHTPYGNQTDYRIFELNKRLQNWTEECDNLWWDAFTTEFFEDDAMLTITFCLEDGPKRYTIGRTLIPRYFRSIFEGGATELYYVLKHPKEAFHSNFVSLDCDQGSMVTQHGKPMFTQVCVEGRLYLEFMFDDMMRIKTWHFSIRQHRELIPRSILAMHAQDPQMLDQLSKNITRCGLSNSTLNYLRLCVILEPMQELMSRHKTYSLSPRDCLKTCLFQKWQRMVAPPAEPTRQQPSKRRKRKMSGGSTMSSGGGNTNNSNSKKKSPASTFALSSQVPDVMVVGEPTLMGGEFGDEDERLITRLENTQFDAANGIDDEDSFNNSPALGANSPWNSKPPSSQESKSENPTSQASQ
UniProt O95777: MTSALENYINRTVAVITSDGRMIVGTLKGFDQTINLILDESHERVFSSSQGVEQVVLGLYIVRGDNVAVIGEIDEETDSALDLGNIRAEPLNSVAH
UniProt Q15334: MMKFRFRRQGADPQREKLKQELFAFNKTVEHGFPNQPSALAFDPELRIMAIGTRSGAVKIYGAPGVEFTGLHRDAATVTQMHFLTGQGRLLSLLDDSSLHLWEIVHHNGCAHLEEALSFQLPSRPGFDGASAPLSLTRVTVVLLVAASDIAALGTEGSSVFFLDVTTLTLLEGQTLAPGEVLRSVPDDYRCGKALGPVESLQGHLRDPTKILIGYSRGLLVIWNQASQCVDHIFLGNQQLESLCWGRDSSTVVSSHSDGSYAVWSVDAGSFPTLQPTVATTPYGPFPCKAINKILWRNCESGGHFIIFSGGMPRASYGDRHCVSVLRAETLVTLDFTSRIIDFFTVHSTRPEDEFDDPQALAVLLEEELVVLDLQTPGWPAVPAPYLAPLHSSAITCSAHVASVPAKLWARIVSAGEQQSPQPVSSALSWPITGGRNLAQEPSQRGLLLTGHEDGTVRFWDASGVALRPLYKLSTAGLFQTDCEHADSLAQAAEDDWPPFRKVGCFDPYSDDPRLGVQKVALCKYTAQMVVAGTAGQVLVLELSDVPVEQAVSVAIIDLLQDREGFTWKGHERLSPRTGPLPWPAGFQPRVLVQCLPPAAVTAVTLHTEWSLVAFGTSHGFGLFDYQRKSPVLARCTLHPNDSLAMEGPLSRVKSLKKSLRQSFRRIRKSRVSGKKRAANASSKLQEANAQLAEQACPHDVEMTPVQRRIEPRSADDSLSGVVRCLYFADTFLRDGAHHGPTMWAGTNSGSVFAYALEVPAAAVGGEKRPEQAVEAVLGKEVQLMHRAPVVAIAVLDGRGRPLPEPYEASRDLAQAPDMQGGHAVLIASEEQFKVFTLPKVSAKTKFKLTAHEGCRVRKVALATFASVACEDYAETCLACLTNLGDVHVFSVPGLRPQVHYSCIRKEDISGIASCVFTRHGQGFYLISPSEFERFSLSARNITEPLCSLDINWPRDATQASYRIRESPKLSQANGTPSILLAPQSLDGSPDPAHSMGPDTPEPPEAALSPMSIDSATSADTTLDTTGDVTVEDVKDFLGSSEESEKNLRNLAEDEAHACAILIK
UniProt Q96BZ8: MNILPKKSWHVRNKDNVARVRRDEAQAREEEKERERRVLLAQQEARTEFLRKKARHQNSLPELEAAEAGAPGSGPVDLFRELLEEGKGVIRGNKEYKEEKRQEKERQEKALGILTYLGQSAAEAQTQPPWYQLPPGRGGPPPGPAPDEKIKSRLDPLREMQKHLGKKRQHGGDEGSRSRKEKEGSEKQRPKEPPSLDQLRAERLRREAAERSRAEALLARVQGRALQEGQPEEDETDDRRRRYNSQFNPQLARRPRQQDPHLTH
UniProt Q7L1W4: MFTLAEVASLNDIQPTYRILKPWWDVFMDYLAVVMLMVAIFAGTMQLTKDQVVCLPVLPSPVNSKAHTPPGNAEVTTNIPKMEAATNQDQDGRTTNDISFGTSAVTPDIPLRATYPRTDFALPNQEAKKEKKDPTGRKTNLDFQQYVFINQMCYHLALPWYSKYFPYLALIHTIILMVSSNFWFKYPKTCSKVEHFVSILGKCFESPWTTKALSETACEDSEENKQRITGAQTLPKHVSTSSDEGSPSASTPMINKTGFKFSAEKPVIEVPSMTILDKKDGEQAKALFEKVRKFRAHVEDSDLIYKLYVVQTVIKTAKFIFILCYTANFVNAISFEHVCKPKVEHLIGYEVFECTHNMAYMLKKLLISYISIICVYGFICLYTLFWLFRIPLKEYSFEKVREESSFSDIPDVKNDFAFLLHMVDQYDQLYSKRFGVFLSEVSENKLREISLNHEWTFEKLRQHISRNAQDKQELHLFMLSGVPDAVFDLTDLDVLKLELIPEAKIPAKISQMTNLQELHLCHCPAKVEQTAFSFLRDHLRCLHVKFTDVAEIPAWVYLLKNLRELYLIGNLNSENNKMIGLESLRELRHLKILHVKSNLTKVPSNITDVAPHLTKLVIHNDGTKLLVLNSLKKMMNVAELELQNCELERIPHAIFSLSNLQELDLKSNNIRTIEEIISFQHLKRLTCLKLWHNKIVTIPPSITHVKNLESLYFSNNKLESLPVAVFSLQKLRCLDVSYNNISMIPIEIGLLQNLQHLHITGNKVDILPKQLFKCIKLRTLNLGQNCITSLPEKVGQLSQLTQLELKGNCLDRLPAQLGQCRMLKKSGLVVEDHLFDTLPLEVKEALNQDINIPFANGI
UniProt Q6P9F7: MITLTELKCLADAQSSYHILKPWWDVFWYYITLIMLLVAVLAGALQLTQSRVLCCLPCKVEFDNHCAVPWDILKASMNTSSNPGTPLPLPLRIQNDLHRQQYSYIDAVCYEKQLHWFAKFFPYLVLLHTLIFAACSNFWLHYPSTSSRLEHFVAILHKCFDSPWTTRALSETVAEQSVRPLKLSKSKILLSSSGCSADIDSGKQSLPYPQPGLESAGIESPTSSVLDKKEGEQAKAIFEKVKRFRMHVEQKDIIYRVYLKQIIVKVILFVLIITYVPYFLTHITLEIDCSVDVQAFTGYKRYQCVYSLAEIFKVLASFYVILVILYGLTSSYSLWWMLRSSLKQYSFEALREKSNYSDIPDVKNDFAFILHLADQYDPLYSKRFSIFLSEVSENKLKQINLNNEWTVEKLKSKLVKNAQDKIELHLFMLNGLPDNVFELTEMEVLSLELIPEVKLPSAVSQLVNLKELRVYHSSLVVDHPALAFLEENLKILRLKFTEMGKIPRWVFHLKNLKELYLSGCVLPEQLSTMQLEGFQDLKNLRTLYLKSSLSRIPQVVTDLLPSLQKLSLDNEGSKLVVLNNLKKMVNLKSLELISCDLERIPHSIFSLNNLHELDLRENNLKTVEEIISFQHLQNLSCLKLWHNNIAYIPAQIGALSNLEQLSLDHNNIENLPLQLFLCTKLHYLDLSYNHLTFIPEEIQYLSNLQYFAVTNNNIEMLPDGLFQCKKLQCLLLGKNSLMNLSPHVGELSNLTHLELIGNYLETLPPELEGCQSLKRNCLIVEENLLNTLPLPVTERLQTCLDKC
UniProt P53671: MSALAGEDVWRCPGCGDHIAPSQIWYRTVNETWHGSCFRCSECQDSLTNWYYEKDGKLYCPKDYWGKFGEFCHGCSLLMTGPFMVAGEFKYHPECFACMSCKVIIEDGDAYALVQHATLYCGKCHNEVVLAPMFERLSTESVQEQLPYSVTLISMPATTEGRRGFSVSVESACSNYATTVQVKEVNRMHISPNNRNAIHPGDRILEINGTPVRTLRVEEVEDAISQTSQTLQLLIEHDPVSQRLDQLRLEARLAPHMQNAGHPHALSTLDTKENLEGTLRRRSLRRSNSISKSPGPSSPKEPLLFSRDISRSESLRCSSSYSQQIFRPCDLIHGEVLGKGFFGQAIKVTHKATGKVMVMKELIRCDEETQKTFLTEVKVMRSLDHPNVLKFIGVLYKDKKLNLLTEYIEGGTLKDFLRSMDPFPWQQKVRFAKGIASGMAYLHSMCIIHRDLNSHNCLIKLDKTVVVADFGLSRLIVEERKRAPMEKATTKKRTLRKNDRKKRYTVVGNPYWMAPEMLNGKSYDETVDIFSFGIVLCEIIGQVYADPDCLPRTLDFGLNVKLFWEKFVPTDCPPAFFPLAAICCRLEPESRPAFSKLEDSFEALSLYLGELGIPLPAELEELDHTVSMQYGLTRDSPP
UniProt Q8NG48: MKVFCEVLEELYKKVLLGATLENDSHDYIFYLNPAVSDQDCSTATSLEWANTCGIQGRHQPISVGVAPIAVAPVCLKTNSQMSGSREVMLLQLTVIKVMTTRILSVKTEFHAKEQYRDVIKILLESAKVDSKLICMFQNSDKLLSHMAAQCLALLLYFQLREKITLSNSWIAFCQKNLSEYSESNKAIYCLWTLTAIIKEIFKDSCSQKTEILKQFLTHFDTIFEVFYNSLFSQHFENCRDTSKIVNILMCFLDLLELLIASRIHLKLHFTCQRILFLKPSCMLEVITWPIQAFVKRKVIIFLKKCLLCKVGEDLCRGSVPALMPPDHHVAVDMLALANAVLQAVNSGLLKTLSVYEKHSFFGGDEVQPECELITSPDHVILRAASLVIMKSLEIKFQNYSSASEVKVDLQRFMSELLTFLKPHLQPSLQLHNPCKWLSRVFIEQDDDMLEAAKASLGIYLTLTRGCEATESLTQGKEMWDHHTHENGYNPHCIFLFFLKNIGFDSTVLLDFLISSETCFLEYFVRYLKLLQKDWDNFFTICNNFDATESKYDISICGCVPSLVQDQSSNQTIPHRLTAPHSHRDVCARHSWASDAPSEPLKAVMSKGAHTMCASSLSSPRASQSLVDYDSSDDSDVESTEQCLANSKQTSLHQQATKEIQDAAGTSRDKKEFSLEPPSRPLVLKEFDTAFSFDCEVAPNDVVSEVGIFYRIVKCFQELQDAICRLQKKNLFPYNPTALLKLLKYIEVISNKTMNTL
UniProt Q9Y4W2: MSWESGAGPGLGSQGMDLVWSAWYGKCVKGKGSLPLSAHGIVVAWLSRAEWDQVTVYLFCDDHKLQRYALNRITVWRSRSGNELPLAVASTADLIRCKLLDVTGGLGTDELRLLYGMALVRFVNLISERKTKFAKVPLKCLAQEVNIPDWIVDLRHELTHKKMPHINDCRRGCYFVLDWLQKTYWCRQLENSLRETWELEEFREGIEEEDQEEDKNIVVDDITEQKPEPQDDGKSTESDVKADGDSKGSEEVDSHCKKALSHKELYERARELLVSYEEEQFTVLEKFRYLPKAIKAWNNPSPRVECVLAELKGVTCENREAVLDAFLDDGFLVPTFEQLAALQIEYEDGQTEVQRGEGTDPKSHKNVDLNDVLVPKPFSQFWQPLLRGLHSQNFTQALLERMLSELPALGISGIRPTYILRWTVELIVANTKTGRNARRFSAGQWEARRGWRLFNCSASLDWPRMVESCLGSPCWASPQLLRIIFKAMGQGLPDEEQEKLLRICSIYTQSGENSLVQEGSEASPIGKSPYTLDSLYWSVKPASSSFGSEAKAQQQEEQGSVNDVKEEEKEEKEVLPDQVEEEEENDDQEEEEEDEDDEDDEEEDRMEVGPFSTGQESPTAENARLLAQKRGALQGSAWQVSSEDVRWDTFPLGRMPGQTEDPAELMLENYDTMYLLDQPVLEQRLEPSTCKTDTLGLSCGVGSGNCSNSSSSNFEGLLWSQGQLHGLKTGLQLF
UniProt Q9BX40: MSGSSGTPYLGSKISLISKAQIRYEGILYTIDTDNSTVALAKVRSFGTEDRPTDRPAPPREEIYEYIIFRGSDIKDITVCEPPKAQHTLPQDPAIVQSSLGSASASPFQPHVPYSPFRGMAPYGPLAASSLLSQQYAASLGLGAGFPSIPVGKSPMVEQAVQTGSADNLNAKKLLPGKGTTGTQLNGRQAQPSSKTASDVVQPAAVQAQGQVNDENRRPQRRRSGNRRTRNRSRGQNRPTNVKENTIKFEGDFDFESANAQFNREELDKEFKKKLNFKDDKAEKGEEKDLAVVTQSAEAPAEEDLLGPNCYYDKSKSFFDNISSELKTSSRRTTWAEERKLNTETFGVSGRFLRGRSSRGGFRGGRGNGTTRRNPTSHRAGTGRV

Columns and labels:
Test in all cases: log2 fold change, soluble protein after heating vs DMSO (PISA); higher = thermal stabilisation; K562 lysate, 10 uM; active = over 0.2 and 3.5 SD of the protein, either way, in both replicates (recomputed)
alvocidib = compound: CN1CC[C@H](c2c(O)cc(O)c3c(=O)cc(-c4ccccc4Cl)oc23)[C@H](O)C1 [alvocidib]
Summary of the method: (§1)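 Pellets of K562 cells were dounce-homogenised in PBS pH 7.4 with 1 mM MgCl2, and the crude extract was held at 1 mg/mL protein for a 30 min treatment with 10 μM compound. Aliquots were heated for 3 min over 48°C-58°C and pooled before NP-40 was added to 0.5% at 4°C. The supernatant from 21,000xg for 90 min was quantified by TMTpro 16plex LC-MS/MS with channel sums equalised. Values are reported from duplicates as log-two fold change in thermal stability relative to solvent controls.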

Tubastatin A = compound: CN1CCc2c(c3ccccc3n2Cc2ccc(C(=O)NO)cc2)C1 [Tubastatin A]
Summary of the method: as §1

[1] = compound: CNC(=O)C1=CC=CC=C1NC2=NC(=NC=C2Cl)NC3=C(C=C(C=C3)N4CCOCC4)OC
Summary of the method: as §1

defactinib = compound: CNC(=O)c1ccc(Nc2ncc(C(F)(F)F)c(NCc3nccnc3N(C)S(C)(=O)=O)n2)cc1 [defactinib]
Summary of the method: as §1

[2] = compound: CNc1nc(-c2ccc3c(N)n[nH]c3c2)cc(N2C[C@@H](C(=O)NC3CCCCC3)CC[C@H]2C)n1
Summary of the method: as §1

encorafenib = compound: COC(=O)N[C@@H](C)CNc1nccc(-c2cn(C(C)C)nc2-c2cc(Cl)cc(NS(C)(=O)=O)c2F)n1 [encorafenib]
Summary of the method: as §1

[3] = compound: COC(=O)[C@H](CCSC)NC(=O)C1=C(C=C(C=C1)NC[C@H](CS)N)C2=CC=CC=C2
Summary of the method: as §1

alisertib = compound: COc1cc(Nc2ncc3c(n2)-c2ccc(Cl)cc2C(c2c(F)cccc2OC)=NC3)ccc1C(=O)O [alisertib]
Summary of the method: as §1

[4] = compound: COc1cc2nc(-c3cc(F)ccc3O)nc(N[C@@H]3CNC[C@H]3C(C)(C)O)c2cc1OC
Summary of the method: as §1

gefitinib = compound: COc1cc2ncnc(Nc3ccc(F)c(Cl)c3)c2cc1OCCCN1CCOCC1 [gefitinib]
Summary of the method: as §1

lapatinib = compound: CS(=O)(=O)CCNCc1ccc(-c2ccc3ncnc(Nc4ccc(OCc5cccc(F)c5)c(Cl)c4)c3c2)o1 [lapatinib]
Summary of the method: as §1

pictilisib = compound: CS(=O)(=O)N1CCN(Cc2cc3nc(-c4cccc5[nH]ncc45)nc(N4CCOCC4)c3s2)CC1 [pictilisib]
Summary of the method: as §1

crizotinib = compound: C[C@@H](Oc1cc(-c2cnn(C3CCNCC3)c2)cnc1N)c1c(Cl)ccc(F)c1Cl [crizotinib]
Summary of the method: as §1

[5] = compound: C[C@H](C1=CC=C(C=C1)C(=O)NC2=C3C=CNC3=NC=C2)N
Summary of the method: as §1

duvelisib = compound: C[C@H](Nc1ncnc2nc[nH]c12)c1cc2cccc(Cl)c2c(=O)n1-c1ccccc1 [duvelisib]
Summary of the method: as §1

gandotinib = compound: Cc1cc(Nc2cc(CN3CCOCC3)c3nc(C)c(Cc4ccc(Cl)cc4F)n3n2)n[nH]1 [gandotinib]
Summary of the method: as §1

tozasertib = compound: Cc1cc(Nc2cc(N3CCN(C)CC3)nc(Sc3ccc(NC(=O)C4CC4)cc3)n2)n[nH]1 [tozasertib]
Summary of the method: as §1

doramapimod = compound: Cc1ccc(-n2nc(C(C)(C)C)cc2NC(=O)Nc2ccc(OCCN3CCOCC3)c3ccccc23)cc1 [doramapimod]
Summary of the method: as §1

bafetinib = compound: Cc1ccc(NC(=O)c2ccc(CN3CC[C@H](N(C)C)C3)c(C(F)(F)F)c2)cc1Nc1nccc(-c2cncnc2)n1 [bafetinib]
Summary of the method: as §1

[6] = compound: Cc1cccc(CC(=O)N2CCc3c2ccc(-c2cn(C)c4ncnc(N)c24)c3F)n1
Summary of the method: as §1

Measured: log2 fold change

LDB1 (UniProt Q86U70)
inactive: alvocidib -0.009 | Tubastatin A -0.002 | [1] 0.021 | defactinib -0.008 | [2] 0.03 | encorafenib -0.007 | [3] -0.131 | alisertib 0.044 | [4] -0.011 | gefitinib -0.018 | lapatinib -0.019 | pictilisib 0.02 | crizotinib 0.018 | [5] -0.039 | duvelisib 0.054 | gandotinib 0.066 | tozasertib -0.111 | doramapimod 0.021 | bafetinib -0.011 | [6] 0.044

LRRC4B (UniProt Q9NT99)
inactive: alvocidib 0.039 | Tubastatin A -0.049 | [1] -0.074 | defactinib 0.04 | [2] -0.294 | encorafenib 0.027 | [3] -0.015 | alisertib 0.019 | [4] 0 | gefitinib 0.082 | lapatinib -0.106 | pictilisib 0.135 | crizotinib -0.051 | [5] 0.006 | duvelisib 0.063 | gandotinib -0.019 | tozasertib 0.024 | doramapimod -0.093 | bafetinib 0.063 | [6] -0.046

LSM8 (UniProt O95777)
inactive: alvocidib -0.012 | Tubastatin A 0.018 | [1] 0.007 | defactinib 0.048 | [2] -0.028 | encorafenib 0.032 | [3] -0.076 | alisertib -0.026 | [4] 0.005 | gefitinib 0.046 | lapatinib -0.005 | pictilisib -0.067 | crizotinib 0.02 | [5] -0.028 | duvelisib 0.002 | gandotinib 0.007 | tozasertib 0.037 | doramapimod 0.016 | bafetinib 0.176 | [6] 0.026

LLGL1 (UniProt Q15334)
inactive: alvocidib 0.026 | Tubastatin A -0.105 | [1] 0.032 | defactinib -0.013 | [2] -0.034 | encorafenib 0.052 | [3] 0.108 | alisertib -0.032 | [4] 0.121 | gefitinib -0.065 | lapatinib -0.005 | pictilisib -0.058 | crizotinib -0.025 | duvelisib 0.096 | gandotinib -0.011 | tozasertib 0.054 | doramapimod 0.006 | bafetinib -0.104 | [6] -0.019
active: [5] 0.263

LDLR (UniProt P01130)
inactive: alvocidib -0.041 | Tubastatin A 0.142 | [1] 0 | defactinib 0.059 | [2] 0.142 | encorafenib 0.03 | [3] -0.022 | alisertib -0.058 | [4] -0.198 | gefitinib -0.03 | lapatinib -0.018 | pictilisib -0.01 | crizotinib 0.006 | [5] 0.05 | duvelisib -0.005 | gandotinib -0.034 | tozasertib -0.009 | doramapimod -0.017 | bafetinib 0.08 | [6] -0.013

LENG1 (UniProt Q96BZ8)
inactive: alvocidib -0.062 | Tubastatin A 0.062 | [1] -0.098 | defactinib -0.029 | [2] 0.041 | encorafenib 0.032 | [3] 0.01 | alisertib 0.008 | [4] -0.033 | gefitinib 0.098 | lapatinib 0.041 | pictilisib 0.045 | crizotinib -0.026 | [5] -0.076 | duvelisib -0.025 | gandotinib 0.079 | tozasertib 0 | doramapimod 0.035 | bafetinib -0.041 | [6] 0.007

LRRC8D (UniProt Q7L1W4)
inactive: alvocidib -0.023 | Tubastatin A 0.036 | [1] -0.031 | defactinib -0.038 | [2] 0.008 | encorafenib 0.023 | [3] 0.106 | alisertib 0.004 | [4] 0.051 | gefitinib 0.003 | lapatinib -0.061 | pictilisib -0.029 | crizotinib 0.004 | [5] -0.083 | duvelisib 0.068 | gandotinib -0.002 | tozasertib -0.053 | doramapimod 0.008 | bafetinib -0.012 | [6] 0.105

LRPPRC (UniProt P42704)
inactive: alvocidib 0.076 | Tubastatin A -0.091 | [1] 0.011 | defactinib 0.037 | [2] -0.041 | encorafenib 0.005 | [3] 0.079 | alisertib 0.029 | [4] -0.006 | gefitinib -0.005 | lapatinib -0.01 | pictilisib 0.048 | crizotinib -0.062 | [5] 0.058 | duvelisib -0.005 | gandotinib -0.189 | tozasertib 0.023 | doramapimod 0.022 | bafetinib -0.008 | [6] 0.045

LRRC8B (UniProt Q6P9F7)
inactive: alvocidib -0.048 | Tubastatin A -0.043 | [1] 0.068 | defactinib 0.001 | [2] 0.089 | encorafenib 0.104 | [3] 0.043 | alisertib 0.05 | [4] 0.209 | gefitinib 0.017 | lapatinib -0.165 | pictilisib -0.088 | crizotinib -0.04 | [5] -0.125 | duvelisib 0.095 | gandotinib 0.053 | tozasertib 0.09 | doramapimod -0.001 | bafetinib 0.158 | [6] 0.026

LIMK2 isoform 3 (UniProt P53671)
inactive: alvocidib -0.002 | Tubastatin A 0.02 | [1] 0.068 | defactinib -0.026 | [2] 0.102 | encorafenib 0.204 | [3] -0.189 | alisertib 0.031 | [4] 0.033 | gefitinib -0.141 | lapatinib 0.029 | pictilisib 0.112 | crizotinib -0.138 | duvelisib -0.035 | gandotinib -0.144 | tozasertib 0.01 | doramapimod 0.109 | bafetinib -0.108 | [6] -0.037
active: [5] 0.626

Retrieved one by one from above, two records:
LRRC4B (UniProt Q9NT99)
inactive: alvocidib 0.039 | Tubastatin A -0.049 | [1] -0.074 | defactinib 0.04 | [2] -0.294 | encorafenib 0.027 | [3] -0.015 | alisertib 0.019 | [4] 0 | gefitinib 0.082 | lapatinib -0.106 | pictilisib 0.135 | crizotinib -0.051 | [5] 0.006 | duvelisib 0.063 | gandotinib -0.019 | tozasertib 0.024 | doramapimod -0.093 | bafetinib 0.063 | [6] -0.046

LDB1 (UniProt Q86U70)
inactive: alvocidib -0.009 | Tubastatin A -0.002 | [1] 0.021 | defactinib -0.008 | [2] 0.03 | encorafenib -0.007 | [3] -0.131 | alisertib 0.044 | [4] -0.011 | gefitinib -0.018 | lapatinib -0.019 | pictilisib 0.02 | crizotinib 0.018 | [5] -0.039 | duvelisib 0.054 | gandotinib 0.066 | tozasertib -0.111 | doramapimod 0.021 | bafetinib -0.011 | [6] 0.044

Remaining list, next part

LMNB2 (UniProt Q03252)
inactive: alvocidib -0.008 | Tubastatin A -0.044 | [1] 0.031 | defactinib 0.029 | [2] -0.009 | encorafenib 0.034 | [3] -0.047 | alisertib 0.03 | [4] -0.069 | gefitinib -0.001 | lapatinib 0.002 | pictilisib -0.041 | crizotinib 0.002 | [5] -0.028 | duvelisib 0.01 | gandotinib -0.022 | tozasertib 0.008 | doramapimod 0.03 | bafetinib -0.088 | [6] 0.007

LINS1 (UniProt Q8NG48)
inactive: alvocidib 0.074 | Tubastatin A -0.08 | [1] 0.044 | defactinib 0.071 | [2] -0.109 | encorafenib 0.095 | [3] -0.001 | alisertib -0.174 | [4] 0.023 | gefitinib 0.025 | lapatinib -0.021 | pictilisib -0.012 | crizotinib -0.005 | [5] -0.073 | duvelisib -0.015 | gandotinib -0.093 | tozasertib -0.068 | doramapimod 0.045 | bafetinib -0.027 | [6] 0.06

LRRC40 (UniProt Q9H9A6)
inactive: alvocidib -0.009 | Tubastatin A -0.089 | [1] 0.019 | defactinib 0.013 | [2] -0.012 | encorafenib 0.021 | [3] -0.038 | alisertib 0.031 | [4] -0.008 | gefitinib 0.001 | lapatinib -0.004 | pictilisib -0.012 | crizotinib -0.007 | [5] 0.015 | duvelisib -0.025 | gandotinib -0.088 | tozasertib 0.014 | doramapimod 0.009 | bafetinib -0.028 | [6] -0.032

LIMD1 (UniProt Q9UGP4)
inactive: alvocidib -0.03 | Tubastatin A -0.057 | [1] 0.027 | defactinib 0.011 | [2] -0.037 | encorafenib 0.032 | [3] -0.082 | alisertib -0.018 | [4] -0.01 | gefitinib -0.04 | lapatinib 0.039 | pictilisib -0.003 | crizotinib -0.019 | [5] -0.015 | duvelisib -0.015 | gandotinib 0.004 | tozasertib -0.004 | doramapimod -0.017 | bafetinib -0.019 | [6] 0.04

LAS1L (UniProt Q9Y4W2)
active: [6] 0.233
inactive: alvocidib -0.015 | Tubastatin A -0.127 | [1] -0.024 | defactinib -0.02 | [2] 0.016 | encorafenib -0.04 | [3] 0.06 | alisertib -0.011 | [4] 0.01 | gefitinib -0.013 | lapatinib -0.004 | pictilisib -0.033 | crizotinib -0.05 | [5] -0.051 | duvelisib -0.003 | gandotinib 0.017 | tozasertib 0.043 | doramapimod 0.011 | bafetinib -0.004

LSM14B isoform 2 (UniProt Q9BX40)
inactive: alvocidib 0.011 | Tubastatin A -0.061 | [1] 0.036 | defactinib -0.033 | [2] -0.005 | encorafenib 0.049 | [3] 0.139 | alisertib 0.043 | [4] -0.011 | gefitinib 0.024 | lapatinib 0.039 | pictilisib -0.022 | crizotinib 0.032 | [5] -0.064 | duvelisib -0.02 | gandotinib -0.009 | tozasertib -0.053 | doramapimod 0.149 | bafetinib -0.158 | [6] 0.034
